For the test, the system named is CD2F1 mice, L1210 leukemia ip, survival T/C. As to the kind of experiment: NCI In Vivo Anticancer Drug Screen. Data for tumor model L1210 Leukemia (intraperitoneal) in CD2F1 (CDF1) mice. Conditions: higher T/C = longer survival. An outline of the steps:
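Read-out first: treated-group measurement over vehicle-control measurement, expressed as a ratio. Animals bore a transplanted tumor line and were dosed with compound or vehicle.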

The mark [1] stands for this setting: T/C endpoint: mean survival time, dose: 100.0 mg/kg/injection, schedule: Q01DX009 (ip), vehicle: distilled water + Tween-80.
Setting [2] is: T/C endpoint: mean survival time, dose: 400.0 mg/kg/injection, schedule: Q01DX001 (ip), vehicle: Klucel (hydroxypropylcellulose) (HPC).
[3] abbreviates: T/C endpoint: mean survival time, dose: 300.0 mg/kg/injection, schedule: Q01DX001 (ip), vehicle: saline.
[4] abbreviates: T/C endpoint: mean survival time, dose: 400.0 mg/kg/injection, schedule: Q04DX003 (ip), vehicle: saline.
Setting [5] is: T/C endpoint: mean survival time, dose: 200.0 mg/kg/injection, schedule: Q01DX009 (ip), vehicle: saline with Tween-80.
[6] abbreviates: T/C endpoint: mean survival time, dose: 400.0 mg/kg/injection, schedule: Q04DX003 (ip), vehicle: saline with Tween-80.
Where [7] appears, read: T/C endpoint: mean survival time, dose: 200.0 mg/kg/injection, schedule: Q04DX003 (ip), vehicle: saline.

Structures are written as SMILES. The list does not hold the whole screen: it gathers tests that were run many times, whatever their T/C, doses with no T/C, and many T/C values between a quarter and a half above the control. Other doses and runs of a compound stand elsewhere. T/C is the treated group as % of the vehicle group. Some entries give survivors of the animals treated and no T/C: the source holds a T/C of zero for them, seemingly a mark for toxic or unscored doses. Some survivor counts are full or nearly so, which does not show that the dose was tolerated: the source hardly ever lists a survival T/C far under the control, and the zero likely stands for such cases as well. Counts of survivors are from the toxicity check (mostly the fifth day) where no day follows; animals may have died later. Schedules are NCI's codes, taken here to give the interval after Q, in days (D) or hours (H), and the number of doses after X. For survival time, this PubChem deposit counts one and a half times the control or more as active, and values a quarter to a half above the control carry no call in these data; other NCI protocols may use other cut-offs. Some T/C values are followed by the survivors on the day toxicity was checked, most often the fifth; where none is given, no animal had died by that day. Some doses were run more than once; the results are listed from low to high. Counts like (3×) say how often a value occurs here.

As for `O/N=c1/ccn(O)c2ccccc12`, the T/C by setting is: (T/C endpoint: mean survival time, dose: 1.0 mg/kg/injection, schedule: Q01DX005 (ip), vehicle: saline) 135 % of control; (T/C endpoint: mean survival time, dose: 1.0 mg/kg/injection, schedule: Q03HX024 (ip), vehicle: saline) 131 % of control; (T/C endpoint: mean survival time, dose: 2.0 mg/kg/injection, schedule: Q01DX005 (ip), vehicle: saline) 141 % of control; (T/C endpoint: mean survival time, dose: 2.0 mg/kg/injection, schedule: Q01DX009 (ip), vehicle: saline) 125 % of control; (T/C endpoint: mean survival time, dose: 2.0 mg/kg/injection, schedule: Q03HX008 (ip), vehicle: saline) 134 % of control; (T/C endpoint: mean survival time, dose: 2.0 mg/kg/injection, schedule: Q03HX016 (ip), vehicle: saline) 134 % of control. Further, the T/C was 130 % of control (T/C endpoint: mean survival time, dose: 2.0 mg/kg/injection, schedule: Q04DX003 (ip), vehicle: saline); 126 % of control (T/C endpoint: mean survival time, dose: 4.0 mg/kg/injection, schedule: Q01DX001 (ip), vehicle: saline); 142 % of control (T/C endpoint: mean survival time, dose: 4.0 mg/kg/injection, schedule: Q01DX005 (ip), vehicle: saline); 133 % of control (T/C endpoint: mean survival time, dose: 4.0 mg/kg/injection, schedule: Q01DX009 (ip), vehicle: saline); 138 % of control (T/C endpoint: mean survival time, dose: 4.0 mg/kg/injection, schedule: Q04DX003 (ip), vehicle: saline); 128 % of control (T/C endpoint: mean survival time, dose: 4.0 mg/kg/injection, schedule: Q08DX002 (ip), vehicle: saline). The T/C was 132 % of control (T/C endpoint: mean survival time, dose: 8.0 mg/kg/injection, schedule: Q01DX001 (ip), vehicle: saline); 128 % of control (T/C endpoint: mean survival time, dose: 8.0 mg/kg/injection, schedule: Q04DX003 (ip), vehicle: saline); 137 % of control (T/C endpoint: mean survival time, dose: 8.0 mg/kg/injection, schedule: Q08DX002 (ip), vehicle: saline). Further, the survivor count is recorded as 6 of 10 (T/C endpoint: mean survival time, dose: 4.0 mg/kg/injection, schedule: Q03HX008 (ip), vehicle: saline); 8 of 10 (T/C endpoint: mean survival time, dose: 4.0 mg/kg/injection, schedule: Q03HX016 (ip), vehicle: saline); 10 of 10 (T/C endpoint: mean survival time, dose: 4.0 mg/kg/injection, schedule: Q03HX024 (ip), vehicle: saline); 6 of 10 (T/C endpoint: mean survival time, dose: 8.0 mg/kg/injection, schedule: Q01DX005 (ip), vehicle: saline); 8 of 10 (T/C endpoint: mean survival time, dose: 8.0 mg/kg/injection, schedule: Q01DX009 (ip), vehicle: saline); 3 of 10 (T/C endpoint: mean survival time, dose: 8.0 mg/kg/injection, schedule: Q03HX008 (ip), vehicle: saline). The survivor count is 5 of 10 (T/C endpoint: mean survival time, dose: 16.0 mg/kg/injection, schedule: Q01DX005 (ip), vehicle: saline); 7 of 10 (T/C endpoint: mean survival time, dose: 32.0 mg/kg/injection, schedule: Q01DX001 (ip), vehicle: saline); 9 of 10 (T/C endpoint: mean survival time, dose: 32.0 mg/kg/injection, schedule: Q04DX003 (ip), vehicle: saline); 4 of 10 (T/C endpoint: mean survival time, dose: 64.0 mg/kg/injection, schedule: Q01DX001 (ip), vehicle: saline).

As to `COc1ccc2oc3c(ccc[n+]3C)c(=O)c2c1`, under “T/C endpoint: median survival time, dose: 480.0 mg/kg/injection, schedule: Q01DX005 (ip), vehicle: saline with Tween-80”, the survivor count is given as 2 of 6.

In the case of `O=S(=O)(O)c1ccc2c(N=Nc3ccccc3[As](=O)(O)O)c(O)c(S(=O)(=O)O)cc2c1`, the survivor count (T/C endpoint: mean survival time, dose: 400.0 mg/kg/injection, schedule: Q01DX009 (ip), vehicle: saline with Tween-80) is 5 of 6.

In the case of `NC(Cc1ccc(N(CCCl)Cc2ccccc2)cc1)C(=O)O` (stereo not given), the T/C is, setting by setting: (T/C endpoint: mean survival time, dose: 3.12 mg/kg/injection, schedule: Q01DX009 (ip), vehicle: distilled water + Tween-80) 142 % of control; (T/C endpoint: mean survival time, dose: 6.25 mg/kg/injection, schedule: Q01DX009 (ip), vehicle: distilled water + Tween-80) 104 (2×), 105, 125 % of control; (T/C endpoint: mean survival time, dose: 12.5 mg/kg/injection, schedule: Q01DX009 (ip), vehicle: distilled water + Tween-80) 111, 112 (2×), 113 % of control; (T/C endpoint: mean survival time, dose: 25.0 mg/kg/injection, schedule: Q01DX009 (ip), vehicle: distilled water + Tween-80) 112 [5 of 6 alive], 115, 119, 123 % of control; (T/C endpoint: mean survival time, dose: 50.0 mg/kg/injection, schedule: Q01DX009 (ip), vehicle: distilled water + Tween-80) 89 [5 of 6 alive], 113, 117, 131 % of control; under setting [1], 100 [5 of 6 alive], 103, 112 % of control [9 of 10 alive]. Further, under setting [1], the survivor count is 2 of 6.

Take `C[N+](C)(CC(=O)Nc1ccc(Oc2ccc(Cl)cc2)cc1)Cc1ccccc1`: the survivor count was 0 of 6 (T/C endpoint: mean survival time, dose: 100.0 mg/kg/injection, schedule: Q01DX001 (ip), vehicle: Klucel (hydroxypropylcellulose) (HPC)); 0 of 6 (T/C endpoint: mean survival time, dose: 200.0 mg/kg/injection, schedule: Q01DX001 (ip), vehicle: Klucel (hydroxypropylcellulose) (HPC)); 0 of 6 under setting [2].

For `CCCCCCCCCC(=O)NCC[N+](C)(CC)CC`, the survivor count by setting is: (T/C endpoint: mean survival time, dose: 75.0 mg/kg/injection, schedule: Q01DX001 (ip), vehicle: saline) 1 of 6; (T/C endpoint: mean survival time, dose: 80.0 mg/kg/injection, schedule: Q01DX001 (ip), vehicle: saline) 3 of 6; (T/C endpoint: mean survival time, dose: 150.0 mg/kg/injection, schedule: Q01DX001 (ip), vehicle: saline) 0 of 6; under setting [3], 0 of 6.

Turning to `NNC(=O)C1CC2CCC1C2` (stereo not given), the survivor count under setting [4] is given as 1 of 6.

As for `c1ccc(Cn2cc(CCc3ccncc3)c3ccccc32)cc1`, the survivor count by setting is: under setting [5], 2 of 6; under setting [6], 0 of 6.

Take `CCCCN(CCCC)CCCC`: the survivor count is, setting by setting: (T/C endpoint: mean survival time, dose: 200.0 mg/kg/injection, schedule: Q01DX001 (ip), vehicle: saline) 0 of 3; (T/C endpoint: mean survival time, dose: 400.0 mg/kg/injection, schedule: Q01DX001 (ip), vehicle: saline) 0 of 3.

On to `O=[n+]1ccn2cc3ccccc3cc2c1`, for which the survivor count runs as follows: (T/C endpoint: mean survival time, dose: 25.0 mg/kg/injection, schedule: Q04DX003 (ip), vehicle: saline with Tween-80) 6 of 6; (T/C endpoint: mean survival time, dose: 100.0 mg/kg/injection, schedule: Q04DX003 (ip), vehicle: saline with Tween-80) 5 of 6; (T/C endpoint: mean survival time, dose: 200.0 mg/kg/injection, schedule: Q04DX003 (ip), vehicle: saline with Tween-80) 1 of 6; under setting [6], 0 of 6.

`Cc1nc(N)nc2c1CCC(=O)N2C`: the survivor count under setting [2] was 0 of 6.

Take `Nc1ncnc2c(C3OC(CO)C(O)C3O)[nH]nc12` (stereo not given): the survivor count runs as follows: (T/C endpoint: mean survival time, dose: 50.0 mg/kg/injection, schedule: Q01DX009 (ip), vehicle: saline with Tween-80) 3 of 6; (T/C endpoint: mean survival time, dose: 100.0 mg/kg/injection, schedule: Q01DX009 (ip), vehicle: saline with Tween-80) 0 of 6; under setting [5], 0 of 6; under setting [6], 3 of 6.

On to `Cc1nc(N)c2ncn(C3OC(CO)C(O)C3O)c2n1` (stereo not given), for which the survivor count (T/C endpoint: mean survival time, dose: 200.0 mg/kg/injection, schedule: Q04DX002 (ip), vehicle: saline with Tween-80) is listed as 1 of 3 and the survivor count (T/C endpoint: mean survival time, dose: 400.0 mg/kg/injection, schedule: Q04DX002 (ip), vehicle: saline with Tween-80) was 0 of 3.

`CCOC(=O)N1CC2CCC(C1)N2C`: the survivor count is 2 of 6 under setting [7] and 0 of 6 under setting [4].

Take `CCCCCCCCCCCCCCCC(=O)N1CC[N+](C)(CC2=CC3(Cl)C(Cl)=C(Cl)C2(Cl)C3(Cl)Cl)CC1` (stereo not given): the survivor count under setting [3] was 0 of 6.

With `O=[N+]([O-])c1cccc(C[n+]2ccccc2C2OCCO2)c1`, the survivor count is listed as 6 of 6 (T/C endpoint: mean survival time, dose: 50.0 mg/kg/injection, schedule: Q04DX003 (ip), vehicle: saline); 2 of 6 (T/C endpoint: mean survival time, dose: 100.0 mg/kg/injection, schedule: Q04DX003 (ip), vehicle: saline); 0 of 6 under setting [7]; 0 of 6 under setting [4].

Consider `N#Cc1[nH]nc2ncnc(NC(=O)C(F)(F)F)c12`, for which the survivor count (T/C endpoint: mean survival time, dose: 100.0 mg/kg/injection, schedule: Q01DX005 (ip), vehicle: water) is 1 of 3.

For the origin of these results see PubChem BioAssay AID256 (DTP/NCI, 2004).
